Experimental data reported in PMC5504672.
The exact form of at least one protein or probe is not confirmed. The comparison behind a weaker result is the experiment's own reference, which may not be listed here. Protein sequences can lack the tags named with them.

Biological target: T1, IolQ-His6 (DegA) (Bacillus subtilis 168) (UniProt P37947)
T1 sequence (looked up, limits assumed): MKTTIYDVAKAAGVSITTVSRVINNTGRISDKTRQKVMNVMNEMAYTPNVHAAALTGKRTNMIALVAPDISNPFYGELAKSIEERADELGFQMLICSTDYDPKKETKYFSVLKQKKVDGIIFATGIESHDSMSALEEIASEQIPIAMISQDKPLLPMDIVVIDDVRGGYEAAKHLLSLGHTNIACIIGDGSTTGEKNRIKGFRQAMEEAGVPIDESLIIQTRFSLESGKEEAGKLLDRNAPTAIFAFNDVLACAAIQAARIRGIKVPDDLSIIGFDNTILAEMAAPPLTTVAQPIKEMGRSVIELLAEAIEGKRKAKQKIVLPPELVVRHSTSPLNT
Experiment: DNase I footprinting
Settings: protected at higher IolQ concentrations (lower affinity); 10 mM Tris-HCl pH 8.0, 1 mM DTT, 10 mM KCl, 5 mM MgCl2, 10% glycerol, 5 ug/ml poly d(I-C), 50 ug/ml BSA, 37 C, 30 min; recombinant protein; protein details: C-terminal His6 (pET-30a); label: 5'-6-FAM on sense or antisense strand; probe letters rebuilt from the primers and the genome

## GAGCTTGTAGTCAGACATTCTACATCACCGCTCAACACATGAGCCCGCTAATGAGCGGGTTTTTTCATTATGACAGTTGAAGCCAAAAAAACATATTGCGTGTAAACCAAAGGCGGTGTAAAATATAACCATCTTTTGAGAAAGCGCTTGCGCAAAATGGCAGAGCGGATAGAACCGCTGTTTTTTTAGCTGTTAAGAGAAAACGCTTTCTCAAAGCGAGCCCGAAATGAGATAAAGGAGAGGATGGGACGTGGAACATCAAGTAAGATGTGCAGTATTGGGATTAGGAAGGCTCGGTTA (double strand) [iolX promoter 300 bp footprint probe, low affinity region]
  binding result: binds more weakly
